Binding data for two substances are collected here from paper doi:10.1101/841999.

Amino acid sequences for entries named in this document (tags omitted).
UniProt A6NIH7: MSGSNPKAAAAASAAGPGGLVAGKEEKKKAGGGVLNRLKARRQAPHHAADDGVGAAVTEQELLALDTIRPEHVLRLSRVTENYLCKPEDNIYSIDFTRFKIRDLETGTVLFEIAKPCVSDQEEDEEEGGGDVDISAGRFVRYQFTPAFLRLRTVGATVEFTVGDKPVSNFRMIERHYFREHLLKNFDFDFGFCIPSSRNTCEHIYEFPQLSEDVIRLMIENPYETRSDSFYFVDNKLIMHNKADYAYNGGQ
UniProt Q92973: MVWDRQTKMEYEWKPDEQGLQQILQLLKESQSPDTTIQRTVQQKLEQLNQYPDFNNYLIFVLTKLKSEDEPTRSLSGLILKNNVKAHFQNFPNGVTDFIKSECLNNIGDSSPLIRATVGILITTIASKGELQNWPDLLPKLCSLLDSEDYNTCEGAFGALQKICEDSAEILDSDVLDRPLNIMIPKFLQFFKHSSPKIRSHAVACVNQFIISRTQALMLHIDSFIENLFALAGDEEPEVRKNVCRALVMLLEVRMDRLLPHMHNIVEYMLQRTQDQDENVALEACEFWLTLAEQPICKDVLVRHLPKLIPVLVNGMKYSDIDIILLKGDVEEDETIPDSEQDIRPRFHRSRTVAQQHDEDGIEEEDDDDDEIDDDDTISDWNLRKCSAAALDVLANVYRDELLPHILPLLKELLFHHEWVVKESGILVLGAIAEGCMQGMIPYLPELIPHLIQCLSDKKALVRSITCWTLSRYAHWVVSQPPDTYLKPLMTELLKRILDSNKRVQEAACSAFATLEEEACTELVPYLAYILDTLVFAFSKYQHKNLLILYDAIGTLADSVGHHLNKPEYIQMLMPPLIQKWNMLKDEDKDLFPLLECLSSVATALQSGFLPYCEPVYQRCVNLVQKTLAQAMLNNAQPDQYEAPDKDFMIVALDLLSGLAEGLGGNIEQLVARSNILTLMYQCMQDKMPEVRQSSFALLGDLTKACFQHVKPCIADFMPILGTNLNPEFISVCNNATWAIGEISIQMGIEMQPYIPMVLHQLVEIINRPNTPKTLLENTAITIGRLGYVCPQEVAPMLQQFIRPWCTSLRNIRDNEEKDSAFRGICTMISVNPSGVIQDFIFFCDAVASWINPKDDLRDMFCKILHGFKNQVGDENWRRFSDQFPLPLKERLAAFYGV

Common to all, as to assay: co-IP
The target of test [1] is T1, FLAG-tagged MACIR wt (UniProt Q96GV9).
T1 sequence: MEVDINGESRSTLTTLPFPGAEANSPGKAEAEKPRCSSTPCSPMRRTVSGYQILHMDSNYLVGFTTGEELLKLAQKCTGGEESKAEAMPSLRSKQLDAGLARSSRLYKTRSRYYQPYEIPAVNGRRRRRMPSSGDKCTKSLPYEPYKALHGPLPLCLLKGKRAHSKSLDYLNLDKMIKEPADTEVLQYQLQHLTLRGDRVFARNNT

The target of test [2] is FLAG-tagged MACIR P142A/Y143Q (UniProt Q96GV9).
The target in test [3] is FLAG-tagged MACIR P116A/Y117Q (UniProt Q96GV9).

No constants are given. Whether binding was seen depends on the method and setting. In cells and extracts the contact can be indirect. Some binding calls cover weakened binding; strength is not graded here. For some of these results: Where a sequence is shown, tags or fusion partners need not be part of it.

Take “UNC119 homolog B (from UniProt A6NIH7 1-251)”: in test [1], the binding entry is “binds”.
Turning to “nuclear transport receptor TNPO1 (from UniProt Q92973 1-898)”, the binding result in test [2] is “binds”; in test [1], “binds”; in test [3], “no binding”.
